# Measured values reported in article PMC7819943, “Rice protein-binding microarrays: a tool to detect cis-acting elements near promoter regions in rice”.
# The other results are listed elsewhere or left out.
# Target: T1, OsSMF1 (Oryza sativa, UniProt Q6ZLB0 1-436)
# T1 sequence: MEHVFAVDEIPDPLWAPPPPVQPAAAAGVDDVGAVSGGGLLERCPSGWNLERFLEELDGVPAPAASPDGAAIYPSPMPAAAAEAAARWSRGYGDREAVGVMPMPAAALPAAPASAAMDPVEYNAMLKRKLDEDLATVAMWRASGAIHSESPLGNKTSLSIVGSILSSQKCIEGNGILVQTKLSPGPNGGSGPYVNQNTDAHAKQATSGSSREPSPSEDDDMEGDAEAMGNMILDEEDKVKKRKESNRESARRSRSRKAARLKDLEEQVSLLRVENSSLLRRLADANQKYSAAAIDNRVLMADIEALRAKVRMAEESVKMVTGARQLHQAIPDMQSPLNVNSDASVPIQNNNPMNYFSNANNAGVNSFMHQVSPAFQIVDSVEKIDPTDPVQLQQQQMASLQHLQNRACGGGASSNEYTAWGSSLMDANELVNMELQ
# Test: protein-binding microarray (RPBM); PBS, 2% BSA, 51.3 ng/ul salmon testes DNA, 50 uM zinc acetate, 200 nM TF, 25 C, 1 h; high values mean tight binding
# Conditions: protein: recombinant; tags: N-terminal polyhistidine and DsRed monomer fusion (pET32a); chain copies: 2; label: CyDye5-dUTP incorporated in the synthesized complementary strand; 3' TTTTT single-stranded linker to array surface; dsDNA, one strand shown
# In short: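 For the binding signal, per-feature fluorescence intensity was read in arbitrary units on an Axon 4000B scanner. Before scanning, a 2% BSA-blocked custom Agilent array made double-stranded with Cy5-dUTP was washed after 1 h at 25 °C with 200 nM protein and 50 µM zinc acetate. The proteins were Ni–NTA-purified transcription factors with N-terminal polyhistidine and DsRed fusions, expressed in E. coli BL21-CodonPlus.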
row,Sequence,binding signal
1,TTCTAAATCGTAACCATTGTGTGTGTGTGTGGACATTTTCCGGAGTCACCTAGTGCAG,3580 fluorescence intensity (a.u.)
2,GGAAGCAAACGAAGCCCAGAAATGACATGGCAAGCAGCTTCGGAGTCACCTAGTGCAG,5130 fluorescence intensity (a.u.)
3,ATATGAGATATTTCATATGCTGTTTATTGCTGCTGCCAGACGGAGTCACCTAGTGCAG,6080 fluorescence intensity (a.u.)
4,CTACGAAAGTGAAAAGGGTGTTTATTTTCACCACCCTAGGCGGAGTCACCTAGTGCAG,4530 fluorescence intensity (a.u.)
5,TAGTACCTTTACTTTTCAGTTTTCACCCCATGTGGCATACCGGAGTCACCTAGTGCAG,3620 fluorescence intensity (a.u.)
6,GGACGGCAACAACATTGTCTCGTTGATAGCTACCTGGATCCGGAGTCACCTAGTGCAG,3420 fluorescence intensity (a.u.)
7,CATGGACAGATATATATAATCACCCATGCATATCAACAGTCGGAGTCACCTAGTGCAG,3300 fluorescence intensity (a.u.)
8,CTTCCACACCGCAATCTCGCAACACATCAGCACACACCGCCGGAGTCACCTAGTGCAG,4730 fluorescence intensity (a.u.)
9,TTCTCCTTCTCCCCAATCGTCAACAGCACCGTCATTCCTCCGGAGTCACCTAGTGCAG,4810 fluorescence intensity (a.u.)
10,TATCTCTTGAGGCCCATCACAAAATTTGGGCCCACATCACCGGAGTCACCTAGTGCAG,3490 fluorescence intensity (a.u.)
11,CAGTACAAGTTGCTATACGTGTCCAGATTTACAAGAATAGCGGAGTCACCTAGTGCAG,3540 fluorescence intensity (a.u.)
12,TGACTAGGTCGTTGCACGCGTCAGCCGGTAGTCCGGACAGCGGAGTCACCTAGTGCAG,6110 fluorescence intensity (a.u.)
13,ACCCTTCGTCACCCCTAACCCTAGGCTGAGTCATTCTCTTCGGAGTCACCTAGTGCAG,10900 fluorescence intensity (a.u.)
14,GTTCGCCGCACGCGCGTGCGCGTGAGCCATCCCCGAGCCGCGGAGTCACCTAGTGCAG,3640 fluorescence intensity (a.u.)
15,GCATTTAGTCACAGCAAATCAGTACTAGTAGTAGTAAGCACGGAGTCACCTAGTGCAG,4300 fluorescence intensity (a.u.)
16,CTGGAGTTTGACTTATATGCTCCAAATAGAGGGGATGCGACGGAGTCACCTAGTGCAG,4250 fluorescence intensity (a.u.)
17,AATGGGCCGAAAGCGTGTGATGACGTCATCAGATTTCGGCCGGAGTCACCTAGTGCAG,31400 fluorescence intensity (a.u.)
18,CCTTAGTCCTAGCTGTCGCCCTCCGTCTCATTCAGTCCTCCGGAGTCACCTAGTGCAG,4380 fluorescence intensity (a.u.)
19,TTGTACGTCTCCGGGCAAGGGCCGCCGATGTAGCGGTCGTCGGAGTCACCTAGTGCAG,3190 fluorescence intensity (a.u.)
20,TTTATCTTTCAAATATGGTGACTACATGTATAGATTAGTCCGGAGTCACCTAGTGCAG,3540 fluorescence intensity (a.u.)
21,TTCCTATTTTGCCCTGTTTAGATTATTGAAGACTCATAAACGGAGTCACCTAGTGCAG,3780 fluorescence intensity (a.u.)

# A stretch from the list above, for reference:
row,Sequence,binding signal
7,CATGGACAGATATATATAATCACCCATGCATATCAACAGTCGGAGTCACCTAGTGCAG,3300 fluorescence intensity (a.u.)
8,CTTCCACACCGCAATCTCGCAACACATCAGCACACACCGCCGGAGTCACCTAGTGCAG,4730 fluorescence intensity (a.u.)
9,TTCTCCTTCTCCCCAATCGTCAACAGCACCGTCATTCCTCCGGAGTCACCTAGTGCAG,4810 fluorescence intensity (a.u.)
10,TATCTCTTGAGGCCCATCACAAAATTTGGGCCCACATCACCGGAGTCACCTAGTGCAG,3490 fluorescence intensity (a.u.)
11,CAGTACAAGTTGCTATACGTGTCCAGATTTACAAGAATAGCGGAGTCACCTAGTGCAG,3540 fluorescence intensity (a.u.)
12,TGACTAGGTCGTTGCACGCGTCAGCCGGTAGTCCGGACAGCGGAGTCACCTAGTGCAG,6110 fluorescence intensity (a.u.)
13,ACCCTTCGTCACCCCTAACCCTAGGCTGAGTCATTCTCTTCGGAGTCACCTAGTGCAG,10900 fluorescence intensity (a.u.)
14,GTTCGCCGCACGCGCGTGCGCGTGAGCCATCCCCGAGCCGCGGAGTCACCTAGTGCAG,3640 fluorescence intensity (a.u.)
15,GCATTTAGTCACAGCAAATCAGTACTAGTAGTAGTAAGCACGGAGTCACCTAGTGCAG,4300 fluorescence intensity (a.u.)
16,CTGGAGTTTGACTTATATGCTCCAAATAGAGGGGATGCGACGGAGTCACCTAGTGCAG,4250 fluorescence intensity (a.u.)

# Remaining list, next part:

row,Sequence,binding signal
1,AACCAGTCGCCGCTCGCCACGTGGCACCCTCCACCTCCCTCGGAGTCACCTAGTGCAG,50500 fluorescence intensity (a.u.)
2,TCCCCGCCGCTTTGTGGGCCCTGCGTCAGATGCATGCAGTCGGAGTCACCTAGTGCAG,5310 fluorescence intensity (a.u.)
3,ATTGCACAGATTGTGACTAATTTGCGAGACGAATCTTTTACGGAGTCACCTAGTGCAG,3520 fluorescence intensity (a.u.)
4,GATCGCAACTCACACATGCTACTGATGATGTACGTACGGACGGAGTCACCTAGTGCAG,25900 fluorescence intensity (a.u.)
5,GATGTTGATGTCACAGCCAACATAGAGAGCATCTCCTTCCCGGAGTCACCTAGTGCAG,3780 fluorescence intensity (a.u.)
6,CGCCGCCGCCGTTGGGGACGGCGATCGAGCAAGGGGCCGTCGGAGTCACCTAGTGCAG,26200 fluorescence intensity (a.u.)
7,CGACTTTGGTACACATCACACAACACAACACAACACCCGGCGGAGTCACCTAGTGCAG,3170 fluorescence intensity (a.u.)
8,CCTCGCCGTCACGCTGGCGGTCGCCACCTCGTCGCTCTCCCGGAGTCACCTAGTGCAG,3720 fluorescence intensity (a.u.)
9,AACTATCTTTATTCTAATGTATCGACGTGTAATTCTTTTACGGAGTCACCTAGTGCAG,3300 fluorescence intensity (a.u.)
10,GGACATAATCTGACTCTTACTCTATTTATAGTATACAACTCGGAGTCACCTAGTGCAG,4640 fluorescence intensity (a.u.)
11,CGTCTACCTCTACGACGACTTCGCCGTCACCGCCGCCACCCGGAGTCACCTAGTGCAG,3260 fluorescence intensity (a.u.)
12,GATTGTGTCACGCTGCCTTTGTGACAACCTGCTTCTTCTTCGGAGTCACCTAGTGCAG,4250 fluorescence intensity (a.u.)
13,TGTAGTGTGTGTATATATACGTGCCACTGCCCCGTCGAGCCGGAGTCACCTAGTGCAG,4360 fluorescence intensity (a.u.)
14,GTAGACCGAACTGTTAGCTAGTCAGCACCCACTAATCTCCCGGAGTCACCTAGTGCAG,4830 fluorescence intensity (a.u.)
15,AGAAGGAAATGTTGGTGAAGAAGTTGTTATATTTTAGGATCGGAGTCACCTAGTGCAG,19500 fluorescence intensity (a.u.)
16,CAGGAAGCGCGAGACCACCGCCTACGTCGTCTCCCTCGCCCGGAGTCACCTAGTGCAG,3250 fluorescence intensity (a.u.)
17,CCCAGGCCGCCACCCTCGTCCACGCCAGCAACGTCCAGTACGGAGTCACCTAGTGCAG,6350 fluorescence intensity (a.u.)
18,ATTTTGCATATCATTGCTGACGTCACTGCTAGCTGTATAACGGAGTCACCTAGTGCAG,19500 fluorescence intensity (a.u.)
19,TTTATTTTCCAACCCATCTCTCTTCTTTCTGCGCACACGTCGGAGTCACCTAGTGCAG,4410 fluorescence intensity (a.u.)
20,ATATAAAATGCAAACCAGTCACTTGTCATCTCAATCTCACCGGAGTCACCTAGTGCAG,4310 fluorescence intensity (a.u.)
21,AAGGGAATATCACGATTTCTAGTTTGCAATCGCGTCACGTCGGAGTCACCTAGTGCAG,5110 fluorescence intensity (a.u.)
